Reference: the supplement of paper PMC6411743
± gives the standard deviation of the averaged measurements. The list shows a part of the results.

The chains behind the UniProt entries cited, without tags or fusion partners. Where a name states a change or a piece, a line headed by the entry shows the natural chain unless it says otherwise.
UniProt O95166, whole entry: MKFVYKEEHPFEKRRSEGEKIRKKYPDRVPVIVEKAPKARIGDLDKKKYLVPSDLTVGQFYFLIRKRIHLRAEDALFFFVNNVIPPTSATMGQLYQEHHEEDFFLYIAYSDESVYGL
UniProt Q9Y421: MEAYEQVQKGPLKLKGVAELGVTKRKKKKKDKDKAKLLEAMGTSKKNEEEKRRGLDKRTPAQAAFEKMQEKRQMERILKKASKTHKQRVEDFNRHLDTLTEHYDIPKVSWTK
UniProt Q15004: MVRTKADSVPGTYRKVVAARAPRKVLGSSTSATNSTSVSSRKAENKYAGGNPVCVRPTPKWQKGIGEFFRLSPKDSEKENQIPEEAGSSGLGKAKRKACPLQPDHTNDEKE
UniProt O14950, whole entry, looked up: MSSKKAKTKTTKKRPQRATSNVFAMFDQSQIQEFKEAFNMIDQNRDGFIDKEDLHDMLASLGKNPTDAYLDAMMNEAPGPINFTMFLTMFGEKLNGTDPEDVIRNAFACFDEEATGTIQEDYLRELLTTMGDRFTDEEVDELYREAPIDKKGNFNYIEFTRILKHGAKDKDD
UniProt O43502: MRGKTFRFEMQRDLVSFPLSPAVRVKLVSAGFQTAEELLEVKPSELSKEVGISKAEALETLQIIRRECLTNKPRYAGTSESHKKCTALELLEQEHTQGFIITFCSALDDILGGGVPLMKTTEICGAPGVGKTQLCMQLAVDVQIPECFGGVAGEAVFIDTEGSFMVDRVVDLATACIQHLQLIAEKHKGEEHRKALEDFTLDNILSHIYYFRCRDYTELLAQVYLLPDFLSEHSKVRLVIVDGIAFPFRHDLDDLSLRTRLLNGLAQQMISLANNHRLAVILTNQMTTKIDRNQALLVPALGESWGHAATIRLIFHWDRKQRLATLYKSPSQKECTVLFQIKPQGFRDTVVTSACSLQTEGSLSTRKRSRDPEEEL
UniProt P41567, whole entry: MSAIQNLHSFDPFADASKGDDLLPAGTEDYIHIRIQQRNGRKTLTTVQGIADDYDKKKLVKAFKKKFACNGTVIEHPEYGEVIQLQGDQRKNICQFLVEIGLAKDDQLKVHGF
UniProt P39687: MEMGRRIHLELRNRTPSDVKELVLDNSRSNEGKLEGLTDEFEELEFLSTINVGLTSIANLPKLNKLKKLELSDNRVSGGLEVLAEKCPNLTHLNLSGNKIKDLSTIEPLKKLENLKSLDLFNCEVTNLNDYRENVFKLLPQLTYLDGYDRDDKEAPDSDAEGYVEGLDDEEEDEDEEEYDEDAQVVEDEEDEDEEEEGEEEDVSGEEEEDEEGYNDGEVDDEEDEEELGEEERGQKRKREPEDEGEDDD
UniProt O60268: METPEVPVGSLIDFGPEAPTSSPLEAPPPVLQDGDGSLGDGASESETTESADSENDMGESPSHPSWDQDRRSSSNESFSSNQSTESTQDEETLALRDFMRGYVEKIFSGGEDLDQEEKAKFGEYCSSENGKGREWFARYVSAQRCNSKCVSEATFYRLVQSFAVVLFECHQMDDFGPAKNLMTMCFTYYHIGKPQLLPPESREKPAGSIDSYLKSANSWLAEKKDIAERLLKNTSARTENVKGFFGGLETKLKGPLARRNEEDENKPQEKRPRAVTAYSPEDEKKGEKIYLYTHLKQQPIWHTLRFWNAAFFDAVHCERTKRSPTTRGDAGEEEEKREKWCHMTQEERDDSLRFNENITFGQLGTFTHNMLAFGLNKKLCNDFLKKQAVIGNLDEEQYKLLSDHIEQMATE
UniProt Q6WCQ1: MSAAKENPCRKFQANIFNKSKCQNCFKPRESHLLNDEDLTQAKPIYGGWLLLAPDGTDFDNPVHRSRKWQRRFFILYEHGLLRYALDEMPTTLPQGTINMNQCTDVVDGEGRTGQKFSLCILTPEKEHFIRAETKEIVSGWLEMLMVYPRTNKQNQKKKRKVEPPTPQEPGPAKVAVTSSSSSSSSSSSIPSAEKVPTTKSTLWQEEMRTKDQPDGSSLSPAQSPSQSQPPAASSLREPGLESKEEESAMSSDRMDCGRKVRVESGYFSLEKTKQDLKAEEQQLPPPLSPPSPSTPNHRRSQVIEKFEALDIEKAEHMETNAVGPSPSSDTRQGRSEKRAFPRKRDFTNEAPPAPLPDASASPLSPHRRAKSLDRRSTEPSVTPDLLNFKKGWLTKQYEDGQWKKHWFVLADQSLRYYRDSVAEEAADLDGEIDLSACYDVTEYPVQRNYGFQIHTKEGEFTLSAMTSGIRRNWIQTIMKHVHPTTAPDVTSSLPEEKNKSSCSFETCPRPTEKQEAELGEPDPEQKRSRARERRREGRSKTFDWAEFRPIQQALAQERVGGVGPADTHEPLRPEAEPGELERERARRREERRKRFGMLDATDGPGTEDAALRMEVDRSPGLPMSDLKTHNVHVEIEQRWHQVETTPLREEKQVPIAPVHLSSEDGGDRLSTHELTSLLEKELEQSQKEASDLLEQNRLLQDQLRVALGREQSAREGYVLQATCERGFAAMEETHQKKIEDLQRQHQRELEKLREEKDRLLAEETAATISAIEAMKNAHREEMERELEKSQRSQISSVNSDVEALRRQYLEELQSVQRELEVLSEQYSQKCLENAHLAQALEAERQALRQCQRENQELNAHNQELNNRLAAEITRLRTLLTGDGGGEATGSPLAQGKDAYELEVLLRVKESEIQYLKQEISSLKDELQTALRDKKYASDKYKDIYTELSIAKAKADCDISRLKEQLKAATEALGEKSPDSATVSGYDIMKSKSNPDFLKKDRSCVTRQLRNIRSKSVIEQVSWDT
UniProt Q96SB4, whole entry: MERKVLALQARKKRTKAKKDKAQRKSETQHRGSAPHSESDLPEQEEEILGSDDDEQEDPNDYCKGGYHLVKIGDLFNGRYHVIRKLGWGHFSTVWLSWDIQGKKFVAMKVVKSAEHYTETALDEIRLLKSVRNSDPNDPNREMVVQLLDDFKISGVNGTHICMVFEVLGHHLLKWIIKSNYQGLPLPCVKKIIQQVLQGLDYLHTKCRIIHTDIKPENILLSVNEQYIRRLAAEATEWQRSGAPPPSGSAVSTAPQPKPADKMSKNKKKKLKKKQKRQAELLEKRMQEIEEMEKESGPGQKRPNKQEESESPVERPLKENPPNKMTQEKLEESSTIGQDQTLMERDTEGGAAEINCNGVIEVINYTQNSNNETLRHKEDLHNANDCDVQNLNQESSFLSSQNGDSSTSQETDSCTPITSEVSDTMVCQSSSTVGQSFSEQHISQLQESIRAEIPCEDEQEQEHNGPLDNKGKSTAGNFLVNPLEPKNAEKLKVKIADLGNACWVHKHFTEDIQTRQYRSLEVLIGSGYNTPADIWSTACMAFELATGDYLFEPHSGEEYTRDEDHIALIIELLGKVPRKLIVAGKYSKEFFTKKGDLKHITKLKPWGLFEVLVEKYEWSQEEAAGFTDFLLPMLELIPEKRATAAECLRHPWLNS
UniProt O15078: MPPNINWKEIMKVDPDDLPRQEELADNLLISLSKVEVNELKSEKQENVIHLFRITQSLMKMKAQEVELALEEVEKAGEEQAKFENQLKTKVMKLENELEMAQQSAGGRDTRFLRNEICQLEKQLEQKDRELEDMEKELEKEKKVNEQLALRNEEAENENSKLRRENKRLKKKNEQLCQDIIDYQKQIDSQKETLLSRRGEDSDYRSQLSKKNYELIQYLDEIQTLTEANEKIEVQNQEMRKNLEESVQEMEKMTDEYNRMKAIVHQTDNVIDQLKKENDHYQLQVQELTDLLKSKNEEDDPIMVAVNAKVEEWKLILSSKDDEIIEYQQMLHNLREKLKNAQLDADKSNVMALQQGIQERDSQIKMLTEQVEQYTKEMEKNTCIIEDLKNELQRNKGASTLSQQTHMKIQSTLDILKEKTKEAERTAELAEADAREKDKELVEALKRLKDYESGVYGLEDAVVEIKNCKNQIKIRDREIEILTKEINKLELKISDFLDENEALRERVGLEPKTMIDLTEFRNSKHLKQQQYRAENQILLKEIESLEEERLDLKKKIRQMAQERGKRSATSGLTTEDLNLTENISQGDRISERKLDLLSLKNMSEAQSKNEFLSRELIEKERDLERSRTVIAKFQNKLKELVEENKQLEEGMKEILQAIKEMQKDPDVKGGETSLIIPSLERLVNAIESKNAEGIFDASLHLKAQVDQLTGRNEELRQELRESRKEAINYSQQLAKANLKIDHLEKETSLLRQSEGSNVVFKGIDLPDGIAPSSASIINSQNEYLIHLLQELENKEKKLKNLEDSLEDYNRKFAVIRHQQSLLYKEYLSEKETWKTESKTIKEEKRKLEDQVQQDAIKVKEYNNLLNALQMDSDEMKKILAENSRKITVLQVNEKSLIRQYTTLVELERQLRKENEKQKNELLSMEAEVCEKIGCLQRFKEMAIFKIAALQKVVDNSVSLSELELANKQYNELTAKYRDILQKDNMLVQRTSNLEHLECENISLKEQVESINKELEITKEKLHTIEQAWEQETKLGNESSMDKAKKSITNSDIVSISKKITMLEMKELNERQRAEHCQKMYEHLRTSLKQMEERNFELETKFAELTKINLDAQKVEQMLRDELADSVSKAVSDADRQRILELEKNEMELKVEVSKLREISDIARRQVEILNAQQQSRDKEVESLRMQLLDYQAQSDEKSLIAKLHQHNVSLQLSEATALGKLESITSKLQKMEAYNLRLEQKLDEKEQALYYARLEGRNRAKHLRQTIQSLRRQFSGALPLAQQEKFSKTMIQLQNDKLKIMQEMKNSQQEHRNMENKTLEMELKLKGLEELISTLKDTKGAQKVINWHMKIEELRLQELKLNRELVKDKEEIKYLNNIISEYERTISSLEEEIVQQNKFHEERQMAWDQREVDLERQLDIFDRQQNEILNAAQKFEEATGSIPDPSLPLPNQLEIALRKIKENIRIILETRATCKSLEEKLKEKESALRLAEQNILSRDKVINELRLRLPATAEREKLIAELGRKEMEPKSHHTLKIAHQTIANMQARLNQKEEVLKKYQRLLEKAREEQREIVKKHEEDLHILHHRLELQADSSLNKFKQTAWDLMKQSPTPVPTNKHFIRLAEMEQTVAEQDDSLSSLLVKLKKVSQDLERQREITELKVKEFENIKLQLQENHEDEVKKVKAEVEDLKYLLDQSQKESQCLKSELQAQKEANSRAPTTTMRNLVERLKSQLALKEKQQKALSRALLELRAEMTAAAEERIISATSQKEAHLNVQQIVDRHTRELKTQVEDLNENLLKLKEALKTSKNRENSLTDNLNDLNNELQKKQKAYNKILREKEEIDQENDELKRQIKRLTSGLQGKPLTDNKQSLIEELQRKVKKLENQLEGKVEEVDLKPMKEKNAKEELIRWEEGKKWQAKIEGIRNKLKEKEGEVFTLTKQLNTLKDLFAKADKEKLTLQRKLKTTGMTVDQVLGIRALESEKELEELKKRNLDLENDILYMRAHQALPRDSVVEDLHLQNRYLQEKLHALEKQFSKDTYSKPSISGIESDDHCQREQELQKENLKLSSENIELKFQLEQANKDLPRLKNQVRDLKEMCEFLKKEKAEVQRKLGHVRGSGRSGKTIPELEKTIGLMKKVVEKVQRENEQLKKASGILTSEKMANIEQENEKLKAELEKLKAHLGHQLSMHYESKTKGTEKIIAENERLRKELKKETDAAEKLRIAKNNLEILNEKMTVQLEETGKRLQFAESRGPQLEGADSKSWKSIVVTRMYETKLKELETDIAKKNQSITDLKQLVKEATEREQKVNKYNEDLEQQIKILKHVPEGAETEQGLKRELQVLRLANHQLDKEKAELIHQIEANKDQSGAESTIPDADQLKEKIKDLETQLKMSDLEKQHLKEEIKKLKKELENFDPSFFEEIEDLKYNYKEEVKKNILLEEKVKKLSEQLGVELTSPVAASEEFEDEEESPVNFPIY
UniProt P61769, whole entry: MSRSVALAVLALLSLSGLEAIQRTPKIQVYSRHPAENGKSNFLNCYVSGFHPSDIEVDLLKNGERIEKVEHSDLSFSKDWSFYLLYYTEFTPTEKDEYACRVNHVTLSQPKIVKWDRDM
UniProt Q96KA5: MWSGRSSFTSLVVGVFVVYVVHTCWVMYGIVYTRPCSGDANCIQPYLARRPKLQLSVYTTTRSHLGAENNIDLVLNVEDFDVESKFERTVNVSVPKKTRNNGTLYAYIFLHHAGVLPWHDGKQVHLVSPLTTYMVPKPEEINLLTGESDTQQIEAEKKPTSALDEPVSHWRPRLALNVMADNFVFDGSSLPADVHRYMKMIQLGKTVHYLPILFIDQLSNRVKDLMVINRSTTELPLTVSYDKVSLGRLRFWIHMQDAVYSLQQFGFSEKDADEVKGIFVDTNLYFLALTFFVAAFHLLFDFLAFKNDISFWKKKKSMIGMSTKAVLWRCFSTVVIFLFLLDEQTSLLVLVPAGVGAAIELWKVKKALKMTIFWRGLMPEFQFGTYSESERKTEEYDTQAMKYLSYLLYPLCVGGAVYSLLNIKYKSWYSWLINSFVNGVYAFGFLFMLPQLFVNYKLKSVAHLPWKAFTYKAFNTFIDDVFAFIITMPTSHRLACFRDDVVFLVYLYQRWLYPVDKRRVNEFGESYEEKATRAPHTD

Compound: Nc1nc2c(ncn2[C@@H]2O[C@H](COP(=O)(O)OP(=O)(O)OP(=O)(O)O)[C@@H](O)[C@H]2O)c(=O)[nH]1 [guanosine triphosphate]
Experiment: NP40-soluble protein abundance relative to vehicle (solubility fold change) (ratio); higher = more soluble protein in presence of GTP
Procedure, shortened: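 In three independent experiments, Jurkat crude lysate made by Dounce homogenisation was treated for 10 min at room temperature and then 3 min at 37 °C with eight concentrations ranging from 0.1 to 10 mM. It was then solubilised with 0.8% NP40 plus benzonase for 60 min at 4 °C and ultracentrifuged. The supernatant was TMT-labelled for LC-MS/MS, and each value is the fold change against the detergent-processed vehicle for the same replicate, using vsn-normalised intensities.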

Target | NP40-soluble protein abundance (concentration: 0.1mM) | NP40-soluble protein abundance (concentration: 0.5mM) | NP40-soluble protein abundance (concentration: 1mM) | NP40-soluble protein abundance (concentration: 2mM) | NP40-soluble protein abundance (concentration: 4mM) | NP40-soluble protein abundance (concentration: 6mM) | NP40-soluble protein abundance (concentration: 8mM) | NP40-soluble protein abundance (concentration: 10mM)
I3L2C7 and related entries (UniProt P57678) | 1.05 ± 0.18 | 1.17 ± 0.24 | 1.14 ± 0.22 | 1.26 ± 0.4 | 1.25 ± 0.31 | 1.26 ± 0.38 | 1.26 ± 0.35 | 1.17 ± 0.32
H6UMI1 and related entries (UniProt O95166) | 0.876 ± 0.048 | 0.962 ± 0.033 | 0.925 ± 0.055 | 0.874 ± 0.034 | 0.834 ± 0.06 | 0.892 ± 0.063 | 0.844 ± 0.052 | 0.886 ± 0.057
H7BZB3 and related entries (UniProt P27708) | 1.06 ± 0.078 | 1.12 ± 0.14 | 1.1 ± 0.17 | 1.19 ± 0.25 | 1.2 ± 0.25 | 1.18 ± 0.27 | 1.12 ± 0.2 | 1.08 ± 0.2
K7EIY1 and related entries (UniProt Q9Y421) | 1.045 ± 0.0048 | 0.987 ± 0.15 | 1.07 ± 0.11 | 1.14 ± 0.14 | 1.25 ± 0.12 | 1.21 ± 0.2 | 1.24 ± 0.11 | 1.37 ± 0.088
H0YKX3 and related entries (UniProt Q15004) | 1.03 ± 0.086 | 1.04 ± 0.062 | 1.07 ± 0.081 | 1.04 ± 0.12 | 0.957 ± 0.13 | 0.982 ± 0.15 | 1.19 ± 0.031 | 1.09 ± 0.039
H7C5R8 and related entries (UniProt Q460N5) | 1.03 ± 0.015 | 1.01 ± 0.024 | 1.033 ± 0.0096 | 1.01 ± 0.054 | 0.976 ± 0.031 | 0.977 ± 0.013 | 0.949 ± 0.014 | 0.947 ± 0.027
J3KN16 and related entries (UniProt Q5VYK3+J3KN16) | 1.01 ± 0.046 | 1.02 ± 0.031 | 0.974 ± 0.05 | 0.962 ± 0.038 | 0.953 ± 0.042 | 0.944 ± 0.026 | 0.92 ± 0.03 | 0.925 ± 0.029
H0Y3N9 and related entries (UniProt Q9UPP1) | 0.967 ± 0.038 | 0.98 ± 0.056 | 1.03 ± 0.072 | 1.04 ± 0.08 | 1.06 ± 0.054 | 1.12 ± 0.095 | 1.14 ± 0.021 | 1.15 ± 0.072
I3L072 and related entries (UniProt Q9BSJ5) | 1.02 ± 0.058 | 0.927 ± 0.089 | 1.05 ± 0.067 | 0.961 ± 0.022 | 1.07 ± 0.065 | 1.04 ± 0.084 | 1.05 ± 0.027 | 0.999 ± 0.058
J3QRS3 and related entries (UniProt P19105+O14950+J3QRS3) | 0.903 ± 0.17 | 0.889 ± 0.11 | 1.17 ± 0.28 | 1.14 ± 0.14 | 1.11 ± 0.16 | 1.16 ± 0.15 | 1.07 ± 0.23 | 1.2 ± 0.26
J3QKK3 and related entries (UniProt O43502) | 1.12 ± 0.13 | 1.14 ± 0.2 | 1.03 ± 0.074 | 1.04 ± 0.14 | 1.08 ± 0.12 | 0.976 ± 0.18 | 0.959 ± 0.094 | 1 ± 0.12
K7EM18 and related entries (UniProt P41567) | 0.846 ± 0.071 | 0.834 ± 0.097 | 0.938 ± 0.1 | 1.03 ± 0.11 | 1.08 ± 0.2 | 1.09 ± 0.15 | 1.09 ± 0.053 | 1.27 ± 0.12
H0YN26 and related entries (UniProt P39687) | 0.904 ± 0.016 | 0.84 ± 0.017 | 1.03 ± 0.059 | 0.928 ± 0.025 | 0.976 ± 0.061 | 0.939 ± 0.025 | 1.01 ± 0.06 | 1.01 ± 0.033
H3BLZ8 (UniProt Q92841) | 0.965 ± 0.078 | 0.966 ± 0.11 | 0.903 ± 0.22 | 1.05 ± 0.018 | 0.981 ± 0.25 | 1.21 ± 0.12 | 1.16 ± 0.1 | 1.05 ± 0.28
H0Y5B4 and related entries (UniProt P83881) | 0.995 ± 0.048 | 1.02 ± 0.057 | 1.05 ± 0.075 | 1.02 ± 0.015 | 0.9783 ± 0.0024 | 0.949 ± 0.041 | 0.776 ± 0.16 | 1.03 ± 0.047
H3BMU3 and related entries (UniProt O60268) | 0.928 ± 0.032 | 0.988 ± 0.17 | 1.01 ± 0.18 | 0.95 ± 0.15 | 0.961 ± 0.14 | 0.918 ± 0.2 | 0.919 ± 0.067 | 0.998 ± 0.096
J3KS81 and related entries (UniProt Q8N511) | 0.9371 ± 0.009 | 0.882 ± 0.014 | 0.966 ± 0.033 | 0.986 ± 0.18 | 1.12 ± 0.056 | 1.1 ± 0.073 | 1.18 ± 0.049 | 1.22 ± 0.11
J3QR07 and related entries (UniProt Q96MU7) | 0.992 ± 0.046 | 1.02 ± 0.03 | 1.09 ± 0.017 | 1.09 ± 0.051 | 1.07 ± 0.075 | 1.09 ± 0.077 | 1.19 ± 0.16 | 1.32 ± 0.2
H3BTA2 and related entries (UniProt P60510) | 1.05 ± 0.079 | 1.05 ± 0.14 | 0.988 ± 0.04 | 1.03 ± 0.1 | 1.07 ± 0.11 | 0.996 ± 0.1 | 0.965 ± 0.017 | 0.92 ± 0.011
H3BN55 and related entries (UniProt P51159) | 0.953 ± 0.063 | 0.982 ± 0.033 | 0.9 ± 0.05 | 0.896 ± 0.0094 | 0.9 ± 0.064 | 0.904 ± 0.013 | 0.808 ± 0.056 | 0.859 ± 0.039
H0Y2S9 and related entries (UniProt Q6WCQ1) | 0.988 ± 0.14 | 1.08 ± 0.19 | 1.14 ± 0.15 | 1.15 ± 0.26 | 1.13 ± 0.18 | 1.21 ± 0.18 | 1.3 ± 0.23 | 1.29 ± 0.24
H3BLV9 and related entries (UniProt Q96SB4) | 1.1 ± 0.059 | 1.14 ± 0.026 | 1.21 ± 0.029 | 1.28 ± 0.068 | 1.39 ± 0.062 | 1.45 ± 0.076 | 1.55 ± 0.11 | 1.6 ± 0.18
UniProt H3BN98 | 0.923 ± 0.017 | 0.858 ± 0.049 | 0.708 ± 0.05 | 0.77 ± 0.13 | 0.7751 ± 0.0041 | 0.743 ± 0.098 | 0.743 ± 0.15 | 0.851 ± 0.024
J3KNF5 and related entries (UniProt O15078) | 1 ± 0.039 | 0.935 ± 0.07 | 0.918 ± 0.063 | 0.893 ± 0.051 | 0.885 ± 0.043 | 0.918 ± 0.063 | 0.892 ± 0.1 | 0.867 ± 0.069
H0YLF3 and related entries (UniProt P61769) | 0.88 ± 0.033 | 0.904 ± 0.031 | 0.915 ± 0.03 | 0.898 ± 0.034 | 0.894 ± 0.064 | 0.878 ± 0.048 | 0.87 ± 0.074 | 0.928 ± 0.04
G5E9Z2 and related entries (UniProt Q96KA5) | 1.09 ± 0.049 | 1.07 ± 0.017 | 1.02 ± 0.042 | 0.983 ± 0.034 | 0.989 ± 0.016 | 0.971 ± 0.039 | 0.974 ± 0.035 | 0.96 ± 0.04

Copied from the listing (two entries):
Target | NP40-soluble protein abundance (concentration: 0.1mM) | NP40-soluble protein abundance (concentration: 0.5mM) | NP40-soluble protein abundance (concentration: 1mM) | NP40-soluble protein abundance (concentration: 2mM) | NP40-soluble protein abundance (concentration: 4mM) | NP40-soluble protein abundance (concentration: 6mM) | NP40-soluble protein abundance (concentration: 8mM) | NP40-soluble protein abundance (concentration: 10mM)
H0YKX3 and related entries (UniProt Q15004) | 1.03 ± 0.086 | 1.04 ± 0.062 | 1.07 ± 0.081 | 1.04 ± 0.12 | 0.957 ± 0.13 | 0.982 ± 0.15 | 1.19 ± 0.031 | 1.09 ± 0.039
H7C5R8 and related entries (UniProt Q460N5) | 1.03 ± 0.015 | 1.01 ± 0.024 | 1.033 ± 0.0096 | 1.01 ± 0.054 | 0.976 ± 0.031 | 0.977 ± 0.013 | 0.949 ± 0.014 | 0.947 ± 0.027
